# Laboratory results reported in patent US20020183279A1, “Pharmaceutical composition containing viscoelastic substance and medication” (Koichiro TANAKA, priority 2001, published 2002).
# At least one compound was matched to its structure with a doubt left.
# System: Bacillus substilis (ATCC6633)
# Test: Inhibition circle (penicillin cup) measurement of antimicrobial activity changed by viscoelastic substance
# Format: cell-based, Bacillus subtilis
# Conditions: OP or VC
# Description: The activity of an antimicrobial agent changes depending upon a type of viscoelastic substance. Such a change was measured by using Bacillus substilis (ATCC6633 referred to as “B subtilis”) and the following viscoelastic substances: First, B. subtilis (0.1 mL of 1.4×10^8 CFU/ML) was spread on a 4% heart infusion medium. Subsequently, a penicillin cup was placed on the medium, and a test solution was poured in the cup. As test solutions, the following groups were used. 0.1 mL of an antimicrobial agent was added to a penicillin cup. Five concentrations from […] were prepared for each antimicrobial agent; 0.1 mL of a viscoelastic substance was added to a penicillin cup; After 0.1 mL of a viscoelastic substance was added to a penicillin cup and allowed to stand still and then 0.1 mL of 5 or 2.5 μg/mL antimicrobial agent was gently added to the viscoelastic substance layer; and 0.1 mL of a viscoelastic substance and 0.1 mL of 5 or 2.5 μg/mL antimicrobial agent were mixed and added to a penicillin cup. Each group was cultured in an incubator at 35° C. for 24 hours. The size of the inhibition circle of B. subtilis was measured. […]
compound,measurement,setting,value
"C[C@H]1COc2c(N3CCN(C)CC3)c(F)cc3c(=O)c(C(=O)O)cn1c23 [LVFX, levofloxacin]",activity of the antimicrobial agent compared to the standard curve,layered group: LVFX layered on HL,lower than the standard
same,bacterial proliferation suppression activity compared to the standard curve,"mixture group: LVFX mixed with HL, FIG. 4",lower than values of the standard curve but not so significant
